According to the supplement of paper PMC12889115:
The other results are listed elsewhere or left out. These are raw signals, not scaled to a control.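 In the initial screen, polymyxin B was used at a concentration that permeabilizes Salmonella's outer membrane but not its inner membrane. Maximum growth was set by DMSO wells with or without polymyxin B. Since plates varied, data were ranked per plate, and compounds giving the lowest OD600 advanced as hits.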

Test system: Salmonella enterica serovar Typhimurium SL1344
Test: bacterial growth OD600 after 18 h with compound and polymyxin B; higher = more bacterial growth (less inhibition)
Details: 50 µM, Mueller-Hinton broth

SMILES | bacterial growth OD600 (polymyxin B 0.75 µg/mL) | bacterial growth OD600 (polymyxin B 1 µg/mL)
COc1ccc(-c2nn(-c3ccccc3)cc2CN(C)Cc2nccs2)c(F)c1 | 0.012 | 
CN(Cc1ccccc1)C(=O)c1nc2ccccn2c1CNCCN1CCCCC1 |  | 0.814
CCOC(=O)CN(C)C(=O)CCC1(Cc2ccc3ccccc3c2)CCC(=O)N1 (configuration not stated) | 0.781 | 
COCCN1C(=O)NC(Cc2ccc(F)cc2)(C2CCN(C(=O)Cc3cccc(F)c3)CC2)C1=O (configuration not stated) | 0.863 | 
CCC(=O)N[C@@H]1c2ccccc2C2(CCN(C(=O)Cn3ccc(C)n3)CC2)[C@H]1OCc1cccnc1 | 0.783 | 
Cc1c(C(C)NCc2cc(F)cc(F)c2)cnn1-c1cccc(F)c1 (configuration not stated) | 0.762 | 
O=C(CCc1nc(-c2ccccc2)no1)NC1CCCN(Cc2ccccc2F)C1 (configuration not stated) |  | 0.925
C=CCCC(=O)NC1CC(=O)N(Cc2ccc(F)cc2)C1 (configuration not stated) |  | 0.887
OC(Cc1ccccc1)c1ccc2c(c1)CN(Cc1ccccc1OC(F)F)CCO2 (configuration not stated) | 0.035 | 
Cc1ccc(C)c(OCc2cc(C(=O)N(C)Cc3n[nH]c4c3CCCC4)no2)c1 | 0.502 | 
CN(Cc1ccccc1)c1ncc2c(n1)CC(C)(C)CC2NS(C)(=O)=O (configuration not stated) | 0.472 | 
Cc1nc(N2CCCCCCC2)ncc1C(C)NC(=O)C1(C(N)=O)CC1 (configuration not stated) |  | 1.02
COc1cc(CN2CCCC2)ccc1OCC(O)CN1CCCCCCC1 (configuration not stated) | 0.811 | 
COC(=O)c1ccc(-c2noc(CN3CCN(c4ccccc4F)CC3)n2)cc1 | 0.757 | 
Cc1cc(C(=O)N2CCCC(Nc3ccc4c(c3)OCCO4)C2)c(C)o1 (configuration not stated) |  | 0.914
COc1cc(C(=O)NCCOC(C)C)ccc1OC1CCN(C2CCCC2)CC1 | 0.751 | 

SMILES | bacterial growth OD600 (polymyxin B 0.75 µg/mL) | bacterial growth OD600 (polymyxin B 1 µg/mL)
CCOC(=O)C1(Cc2cccc(Cl)c2)CCCN(C(=O)c2cnn3cccnc23)C1 (configuration not stated) | 0.74 | 
Cc1c(CC(=O)NC(C)CO)c2c(n1Cc1ccccc1F)CCCC2=O (configuration not stated) | 0.865 | 
COc1ccc(CN(C)CC2CCCN(CCc3ccc(F)cc3)C2)cc1O (configuration not stated) |  | 0.814
CCC(CC)NC(=O)C1CCC(=O)N(Cc2ccccc2F)C1 (configuration not stated) |  | 0.875
CC(NC(=O)c1cc(COc2ccc3c(c2)OCO3)[nH]n1)c1cnn(C)c1 (configuration not stated) |  | 1.04
COc1ccc(-c2noc(CN3CCCCC3CO)n2)c(OC)c1OC (configuration not stated) |  | 0.938
COc1ccc(OC)c(CN2CCCC(C(=O)c3ccc(OC)c(F)c3)C2)c1 (configuration not stated) | 0.731 | 
COc1ccc(NC(=O)CCC2CCCN(C(=O)c3ccccc3C(C)=O)C2)cc1Cl (configuration not stated) |  | 1.04
Cc1ncc2c(c1CNC(=O)c1ccc3c(c1)OCO3)CCN(C(=O)COc1ccccc1Cl)C2 | 1.06 | 
CSCCCN1CCC(N2CCC(C(=O)NCc3cccnc3)CC2)CC1 |  | 0.96
CCS(=O)(=O)c1ncc(CN2CCC(C)CC2)n1CCOC |  | 0.992
CCc1ccc(CN(C)C(=O)c2coc(COc3ccccc3)n2)nc1 | 0.78 | 
COC1CCCN(c2ccc(C(=O)NCCCc3c(C)noc3C)cn2)C1 (configuration not stated) |  | 1.04
CN(C)c1ncc2c(n1)CCCC2NC(=O)CCN1CCCC1=O (configuration not stated) |  | 0.919
CCC(CC)C(=O)N1CCc2c(cnc(C)c2CNS(=O)(=O)c2cccs2)C1 | 0.971 | 
CSc1ccccc1C(=O)NC1CCCN(CCc2ccccc2)C1 (configuration not stated) |  | 0.852

Another view of some results above:

| SMILES | bacterial growth OD600 (polymyxin B 0.75 µg/mL) | bacterial growth OD600 (polymyxin B 1 µg/mL) |
| --- | --- | --- |
| CCc1ccc(CN(C)C(=O)c2coc(COc3ccccc3)n2)nc1 | 0.78 |  |
| COC1CCCN(c2ccc(C(=O)NCCCc3c(C)noc3C)cn2)C1 (configuration not stated) |  | 1.04 |
| CN(C)c1ncc2c(n1)CCCC2NC(=O)CCN1CCCC1=O (configuration not stated) |  | 0.919 |
